We go through two substances from paper PMC3154905.

Sequences of proteins named here, by UniProt entry; tags and fusion partners are left off. A change or cut given only in a name is not applied to a line headed by its entry.
UniProt Q75G68: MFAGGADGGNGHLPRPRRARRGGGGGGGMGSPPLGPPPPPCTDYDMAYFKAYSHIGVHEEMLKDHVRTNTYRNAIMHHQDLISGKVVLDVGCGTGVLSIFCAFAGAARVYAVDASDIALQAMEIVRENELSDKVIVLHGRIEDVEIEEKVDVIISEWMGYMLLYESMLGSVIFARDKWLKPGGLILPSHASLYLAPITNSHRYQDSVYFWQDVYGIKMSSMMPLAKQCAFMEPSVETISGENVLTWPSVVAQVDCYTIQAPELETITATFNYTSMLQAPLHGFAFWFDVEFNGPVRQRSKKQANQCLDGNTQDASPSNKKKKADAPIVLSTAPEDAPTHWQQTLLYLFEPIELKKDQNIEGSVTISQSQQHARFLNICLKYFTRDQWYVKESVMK
UniProt Q7XKC0: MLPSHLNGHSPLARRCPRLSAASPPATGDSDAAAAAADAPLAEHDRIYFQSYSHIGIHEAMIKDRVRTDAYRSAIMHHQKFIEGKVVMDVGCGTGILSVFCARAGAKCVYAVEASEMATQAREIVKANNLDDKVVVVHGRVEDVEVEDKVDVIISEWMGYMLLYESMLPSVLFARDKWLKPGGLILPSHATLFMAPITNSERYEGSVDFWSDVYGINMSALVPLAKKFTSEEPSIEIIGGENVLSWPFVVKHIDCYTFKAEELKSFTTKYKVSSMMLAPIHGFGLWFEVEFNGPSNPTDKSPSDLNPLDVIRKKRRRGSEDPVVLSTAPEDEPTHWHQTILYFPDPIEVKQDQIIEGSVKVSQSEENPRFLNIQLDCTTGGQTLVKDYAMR

No constants are given. Whether binding was seen depends on the method and setting. Binding can be weak; no strength is given.

The target in assay [1] is MBP-HIS-OsPRMT6a (Oryza sativa L. ssp. Japonica, Nipponbare) (UniProt Q75G68). Briefly: pull-down; about 2 µg of resin-bound (HIS resin) MBP-HIS or MBP-HIS-OsPRMT6a as bait, same amount of eluted GST or GST-OsPRMT6b as prey; washed with modified RIPA buffer (20 mM Tris/HCl pH 7.5, 150 mM NaCl, 5 mM EDTA, 1% Nonidet P40, 0.5% sodium deoxycholate); blot with GST antiserum (Figure 5A); both ….

The target in assay [2] is GST-OsPRMT6b (Oryza sativa L. ssp. Japonica, Nipponbare) (UniProt Q7XKC0). Briefly: pull-down; about 2 µg of resin-bound (glutathione-Sepharose) GST or GST-OsPRMT6b as bait, same amount of eluted MBP-HIS or MBP-HIS-OsPRMT6a as prey; washed with modified RIPA buffer (20 mM Tris/HCl pH 7.5, 150 mM NaCl, 5 mM EDTA, 1% Nonidet P40, 0.5% sodium deoxycholate); blot with MBP antiserum (Figure 5B); both purified.

For the substance “GST-OsPRMT6b (from UniProt Q7XKC0) (enzyme)”, the binding entry in assay [1] is given as “binds”.
“MBP-HIS-OsPRMT6a (from UniProt Q75G68) (enzyme)”: the binding entry in assay [2] is listed as “binds”.
